Measurements from the supplement of paper PMC10849652.
The list shows a part of the results.

Protein sequences, listed by entry. Tags and fused reporters are not part of them. Lines headed by an entry give the natural chain unless they say otherwise; changes in a name come on top.
UniProt P04844: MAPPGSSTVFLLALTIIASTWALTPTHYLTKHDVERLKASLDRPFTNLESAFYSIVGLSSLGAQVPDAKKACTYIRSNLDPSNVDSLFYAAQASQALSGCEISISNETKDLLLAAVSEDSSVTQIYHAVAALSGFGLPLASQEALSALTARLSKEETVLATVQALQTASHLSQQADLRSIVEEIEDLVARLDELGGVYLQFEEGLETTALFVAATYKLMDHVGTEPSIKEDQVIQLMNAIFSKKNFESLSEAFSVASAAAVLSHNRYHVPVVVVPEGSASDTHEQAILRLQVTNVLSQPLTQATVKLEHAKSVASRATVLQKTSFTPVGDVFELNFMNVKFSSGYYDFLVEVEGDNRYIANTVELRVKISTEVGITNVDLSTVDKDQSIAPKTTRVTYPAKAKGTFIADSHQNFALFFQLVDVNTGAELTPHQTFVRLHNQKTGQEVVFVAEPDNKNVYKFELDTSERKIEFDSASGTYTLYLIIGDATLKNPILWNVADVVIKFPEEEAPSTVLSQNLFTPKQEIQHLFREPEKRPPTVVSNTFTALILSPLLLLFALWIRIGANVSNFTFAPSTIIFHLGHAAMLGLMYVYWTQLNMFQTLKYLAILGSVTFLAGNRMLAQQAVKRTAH
UniProt P27694, whole entry, looked up: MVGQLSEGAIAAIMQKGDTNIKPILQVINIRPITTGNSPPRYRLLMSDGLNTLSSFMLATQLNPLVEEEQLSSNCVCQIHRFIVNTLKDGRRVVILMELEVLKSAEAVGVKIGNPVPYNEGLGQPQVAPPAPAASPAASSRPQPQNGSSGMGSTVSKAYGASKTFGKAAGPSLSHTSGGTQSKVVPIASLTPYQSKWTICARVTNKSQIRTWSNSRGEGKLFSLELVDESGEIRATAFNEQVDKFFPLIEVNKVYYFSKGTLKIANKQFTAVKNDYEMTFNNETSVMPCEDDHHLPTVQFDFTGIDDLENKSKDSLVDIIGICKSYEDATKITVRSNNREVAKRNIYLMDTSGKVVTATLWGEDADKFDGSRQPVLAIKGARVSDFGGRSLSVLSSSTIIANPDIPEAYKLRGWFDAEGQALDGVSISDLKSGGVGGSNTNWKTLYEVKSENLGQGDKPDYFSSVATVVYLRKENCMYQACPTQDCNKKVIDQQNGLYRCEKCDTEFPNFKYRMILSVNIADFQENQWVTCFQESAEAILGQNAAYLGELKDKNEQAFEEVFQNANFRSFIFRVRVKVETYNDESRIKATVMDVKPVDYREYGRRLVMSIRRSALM
UniProt Q96S38: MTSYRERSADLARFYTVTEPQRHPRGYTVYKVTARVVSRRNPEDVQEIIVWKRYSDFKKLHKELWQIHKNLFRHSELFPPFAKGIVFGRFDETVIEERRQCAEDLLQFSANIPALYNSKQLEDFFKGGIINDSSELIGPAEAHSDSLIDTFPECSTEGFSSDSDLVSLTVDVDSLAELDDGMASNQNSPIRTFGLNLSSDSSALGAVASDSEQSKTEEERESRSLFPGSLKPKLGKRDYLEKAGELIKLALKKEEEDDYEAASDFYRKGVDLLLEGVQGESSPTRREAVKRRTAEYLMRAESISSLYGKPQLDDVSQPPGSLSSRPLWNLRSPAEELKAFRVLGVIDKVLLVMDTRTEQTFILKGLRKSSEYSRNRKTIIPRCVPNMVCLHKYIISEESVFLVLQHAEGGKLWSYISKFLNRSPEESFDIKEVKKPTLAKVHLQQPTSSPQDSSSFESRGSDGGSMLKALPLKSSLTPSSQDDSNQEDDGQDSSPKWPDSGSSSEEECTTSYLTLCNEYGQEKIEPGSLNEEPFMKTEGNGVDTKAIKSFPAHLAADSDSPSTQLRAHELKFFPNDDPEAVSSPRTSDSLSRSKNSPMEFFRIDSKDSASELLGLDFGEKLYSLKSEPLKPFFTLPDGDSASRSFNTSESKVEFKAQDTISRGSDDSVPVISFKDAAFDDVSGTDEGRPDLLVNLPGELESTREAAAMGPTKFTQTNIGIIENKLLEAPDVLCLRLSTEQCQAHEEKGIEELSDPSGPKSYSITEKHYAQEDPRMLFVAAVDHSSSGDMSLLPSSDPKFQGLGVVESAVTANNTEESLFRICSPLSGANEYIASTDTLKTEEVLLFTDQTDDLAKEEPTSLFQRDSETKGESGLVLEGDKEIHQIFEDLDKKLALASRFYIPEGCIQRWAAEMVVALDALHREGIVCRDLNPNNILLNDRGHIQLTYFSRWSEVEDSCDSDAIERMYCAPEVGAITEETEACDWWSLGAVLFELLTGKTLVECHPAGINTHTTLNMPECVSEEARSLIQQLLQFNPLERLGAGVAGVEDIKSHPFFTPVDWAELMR
UniProt Q01974, whole entry, looked up: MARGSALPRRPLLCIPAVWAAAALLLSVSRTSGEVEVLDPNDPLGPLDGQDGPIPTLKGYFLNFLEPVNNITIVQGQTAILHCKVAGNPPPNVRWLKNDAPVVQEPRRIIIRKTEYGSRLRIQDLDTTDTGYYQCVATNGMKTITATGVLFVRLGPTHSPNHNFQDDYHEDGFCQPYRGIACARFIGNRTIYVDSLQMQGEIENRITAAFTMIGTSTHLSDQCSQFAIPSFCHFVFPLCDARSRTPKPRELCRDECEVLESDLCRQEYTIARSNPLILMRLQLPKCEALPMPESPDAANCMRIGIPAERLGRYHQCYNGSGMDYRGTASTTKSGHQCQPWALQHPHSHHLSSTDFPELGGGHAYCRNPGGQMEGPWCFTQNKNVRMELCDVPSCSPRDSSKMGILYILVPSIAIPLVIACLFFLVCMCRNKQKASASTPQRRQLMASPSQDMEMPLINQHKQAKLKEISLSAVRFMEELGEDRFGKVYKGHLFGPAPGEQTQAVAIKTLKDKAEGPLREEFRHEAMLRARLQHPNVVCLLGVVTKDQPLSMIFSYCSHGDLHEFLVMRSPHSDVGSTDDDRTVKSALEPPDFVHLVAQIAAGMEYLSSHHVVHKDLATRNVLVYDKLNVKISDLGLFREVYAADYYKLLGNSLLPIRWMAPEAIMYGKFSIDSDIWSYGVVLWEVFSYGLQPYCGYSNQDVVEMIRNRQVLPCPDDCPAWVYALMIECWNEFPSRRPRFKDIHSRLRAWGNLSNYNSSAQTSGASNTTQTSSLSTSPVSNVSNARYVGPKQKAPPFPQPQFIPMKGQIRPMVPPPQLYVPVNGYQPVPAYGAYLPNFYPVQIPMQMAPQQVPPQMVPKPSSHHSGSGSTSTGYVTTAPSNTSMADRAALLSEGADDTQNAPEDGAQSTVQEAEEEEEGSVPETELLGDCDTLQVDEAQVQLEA
UniProt Q7LG56, whole entry, looked up: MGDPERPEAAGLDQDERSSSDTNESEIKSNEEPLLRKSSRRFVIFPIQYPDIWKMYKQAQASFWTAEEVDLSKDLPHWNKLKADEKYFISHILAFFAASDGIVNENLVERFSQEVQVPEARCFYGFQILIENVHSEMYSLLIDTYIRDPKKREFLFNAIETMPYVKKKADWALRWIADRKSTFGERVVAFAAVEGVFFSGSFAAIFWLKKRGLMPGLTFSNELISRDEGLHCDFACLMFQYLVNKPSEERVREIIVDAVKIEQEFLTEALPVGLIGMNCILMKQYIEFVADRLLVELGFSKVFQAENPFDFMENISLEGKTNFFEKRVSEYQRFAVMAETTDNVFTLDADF
UniProt P35244: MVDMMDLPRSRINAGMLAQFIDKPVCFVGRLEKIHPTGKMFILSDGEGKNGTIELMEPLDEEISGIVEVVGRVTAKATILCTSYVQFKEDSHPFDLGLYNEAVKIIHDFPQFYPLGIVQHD
UniProt Q9BUL9: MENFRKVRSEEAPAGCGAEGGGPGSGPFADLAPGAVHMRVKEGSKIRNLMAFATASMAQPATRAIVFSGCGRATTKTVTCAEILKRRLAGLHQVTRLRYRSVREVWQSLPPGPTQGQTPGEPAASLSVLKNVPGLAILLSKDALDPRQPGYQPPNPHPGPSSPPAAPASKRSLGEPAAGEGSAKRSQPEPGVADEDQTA
UniProt P15927: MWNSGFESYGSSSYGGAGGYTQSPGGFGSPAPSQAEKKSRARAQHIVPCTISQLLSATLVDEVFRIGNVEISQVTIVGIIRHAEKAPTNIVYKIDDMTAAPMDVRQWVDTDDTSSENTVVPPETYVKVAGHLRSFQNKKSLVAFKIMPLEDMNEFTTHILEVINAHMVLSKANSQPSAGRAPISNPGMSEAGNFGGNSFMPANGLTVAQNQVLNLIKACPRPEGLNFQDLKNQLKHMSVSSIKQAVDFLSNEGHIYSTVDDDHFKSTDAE
UniProt Q8TA86: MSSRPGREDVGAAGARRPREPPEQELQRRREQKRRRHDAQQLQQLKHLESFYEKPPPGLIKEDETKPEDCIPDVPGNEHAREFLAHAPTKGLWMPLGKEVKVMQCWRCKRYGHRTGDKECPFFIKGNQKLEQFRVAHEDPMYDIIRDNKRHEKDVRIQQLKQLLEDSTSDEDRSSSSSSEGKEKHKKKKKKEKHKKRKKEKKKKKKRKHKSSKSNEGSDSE
UniProt Q9UBF6, whole entry, looked up: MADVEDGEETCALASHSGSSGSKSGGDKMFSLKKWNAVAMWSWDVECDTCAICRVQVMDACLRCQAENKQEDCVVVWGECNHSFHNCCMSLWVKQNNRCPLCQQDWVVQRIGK
UniProt P62070: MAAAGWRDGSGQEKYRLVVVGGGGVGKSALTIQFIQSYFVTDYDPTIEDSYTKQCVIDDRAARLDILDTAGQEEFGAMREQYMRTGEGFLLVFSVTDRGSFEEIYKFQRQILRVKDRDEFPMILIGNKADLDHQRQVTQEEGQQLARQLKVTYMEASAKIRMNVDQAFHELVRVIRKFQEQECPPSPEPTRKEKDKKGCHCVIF
UniProt Q92901: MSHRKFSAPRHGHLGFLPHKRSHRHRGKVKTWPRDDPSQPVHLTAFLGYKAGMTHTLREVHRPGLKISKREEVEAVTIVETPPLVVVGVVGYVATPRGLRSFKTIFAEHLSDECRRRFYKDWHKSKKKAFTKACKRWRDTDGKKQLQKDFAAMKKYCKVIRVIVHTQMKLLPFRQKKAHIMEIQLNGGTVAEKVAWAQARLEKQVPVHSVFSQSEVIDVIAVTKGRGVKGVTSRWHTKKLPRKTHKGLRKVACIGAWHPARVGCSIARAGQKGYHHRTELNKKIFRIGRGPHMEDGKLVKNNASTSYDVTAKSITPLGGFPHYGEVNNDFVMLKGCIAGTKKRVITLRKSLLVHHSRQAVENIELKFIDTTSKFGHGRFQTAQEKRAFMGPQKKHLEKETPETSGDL
UniProt P60602: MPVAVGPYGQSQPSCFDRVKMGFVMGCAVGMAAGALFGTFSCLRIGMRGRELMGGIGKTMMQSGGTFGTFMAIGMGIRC
UniProt O75818: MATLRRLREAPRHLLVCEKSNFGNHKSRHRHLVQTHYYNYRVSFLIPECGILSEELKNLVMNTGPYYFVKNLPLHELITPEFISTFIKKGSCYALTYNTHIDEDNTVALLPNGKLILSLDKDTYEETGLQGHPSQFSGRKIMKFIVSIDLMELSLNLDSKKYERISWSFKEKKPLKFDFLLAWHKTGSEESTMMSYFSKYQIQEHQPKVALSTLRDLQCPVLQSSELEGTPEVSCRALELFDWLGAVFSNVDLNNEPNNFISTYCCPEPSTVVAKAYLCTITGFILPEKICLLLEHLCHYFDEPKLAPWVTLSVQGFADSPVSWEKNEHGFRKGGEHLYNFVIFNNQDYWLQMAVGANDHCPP

What follows are targets tested with NC(=O)Nc1cc(-c2cccc(F)c2)sc1C(=O)N[C@H]1CCCNC1 (assay: log2 fold change, soluble protein after heating vs DMSO (PISA); higher = thermal stabilisation; K562 cells, 10 uM, 30 min; active = over 0.2 and 3.5 SD of the protein, either way, in both replicates (recomputed)).
Outline: (§1)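 Aliquots of K562 cells (2×10^6 cells/mL) treated with 10 μM compound for 30 min were heated for 3 min over 48°C-58°C. After pooling and extraction in PBS with 0.5% NP-40 at 4°C, soluble protein from a 21,000xg, 90 min spin was quantified by TMTpro 16plex LC-MS/MS with channel sums equalised. Thermal stability is expressed against control samples, from duplicates, as a log2 fold change.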

log2 fold change, inactive:
RPN2 (UniProt P04844) -0.017
RPA1 (UniProt P27694) -0.189
RPS6KC1 (UniProt Q96S38) -0.048
ROR2 (UniProt Q01974) -0.007
RPL7A (UniProt P62424) 0.222
RPL26L1 (UniProt Q9UNX3) 0.157
RRM2B isoform 6 (UniProt Q7LG56) -0.019
RPS6 (UniProt P62753) 0.115
RPS7, A0A2R8Y623 0.286
RPA3 (UniProt P35244) 0.044
RPP25 (UniProt Q9BUL9) -0.046
RPA2 isoform 3 (UniProt P15927) -0.139
RPS19 (UniProt P39019) -0.008
RPS20 isoform 2 (UniProt P60866) -0.012
RPL13A (UniProt P40429) 0.23
RP9 (UniProt Q8TA86) 0.121
RNF7 (UniProt Q9UBF6) 0.067
RPL3 (UniProt P39023) 0.21
RPS16 (UniProt P62249) 0.086
RRAS2 isoform 4 (UniProt P62070) -0.068
RPS2 (UniProt P15880) 0.035
RPL3L (UniProt Q92901) 0.284
RPL22 (UniProt P35268) 0.004
RPS29 (UniProt P62273) -0.026
RPL19 (UniProt P84098) 0.155
RPL14 (UniProt P50914) 0.252
RPL35 (UniProt P42766) 0.167
ROMO1 (UniProt P60602) -0.105
RPL37 (UniProt P61927) 0.185
RPL37A (UniProt P61513) 0.132
RPP40 (UniProt O75818) -0.004
RPL8 (UniProt P62917) 0.16

The targets below were run with NC(=O)c1cnc(N[C@@H]2CCCC[C@@H]2N)nc1Nc1cccc(-n2nccn2)c1 in the same assay as above.
Outline: as §1

log2 fold change, inactive:
RPN2 (UniProt P04844) -0.015
RPA1 (UniProt P27694) 0.007
RPS6KC1 (UniProt Q96S38) -0.159
ROR2 (UniProt Q01974) -0.01
RPL7A (UniProt P62424) 0.183
RPL26L1 (UniProt Q9UNX3) 0.169
RRM2B isoform 6 (UniProt Q7LG56) -0.035
RPS6 (UniProt P62753) 0.211
RPS7, A0A2R8Y623 0.572
RPA3 (UniProt P35244) 0.086
RPP25 (UniProt Q9BUL9) 0.034
RPA2 isoform 3 (UniProt P15927) -0.08
RPS19 (UniProt P39019) 0.075
RPS20 isoform 2 (UniProt P60866) 0.056
RPL13A (UniProt P40429) 0.206
RP9 (UniProt Q8TA86) 0.224
RNF7 (UniProt Q9UBF6) 0.031
RPL3 (UniProt P39023) 0.164
RPS16 (UniProt P62249) 0.08
RRAS2 isoform 4 (UniProt P62070) 0.03
RPS2 (UniProt P15880) 0.081
RPL3L (UniProt Q92901) 0.185
RPL22 (UniProt P35268) 0.036
RPS29 (UniProt P62273) 0.223
RPL19 (UniProt P84098) 0.152
RPL14 (UniProt P50914) 0.168
RPL35 (UniProt P42766) 0.039
ROMO1 (UniProt P60602) 0.046
RPL37 (UniProt P61927) 0.129
RPL37A (UniProt P61513) 0.241
RPP40 (UniProt O75818) -0.061
RPL8 (UniProt P62917) 0.209

These targets were tested with NC1(c2ccc(-c3nc4ccn5c(=O)[nH]nc5c4cc3-c3ccccc3)cc2)CCC1 in the same assay as above.
Outline: as §1

log2 fold change, inactive:
RPN2 (UniProt P04844) -0.08
RPA1 (UniProt P27694) -0.049
RPS6KC1 (UniProt Q96S38) -0.071
ROR2 (UniProt Q01974) -0.03
RPL7A (UniProt P62424) 0.495
RPL26L1 (UniProt Q9UNX3) 0.415
RRM2B isoform 6 (UniProt Q7LG56) -0.035
RPS6 (UniProt P62753) 0.299
RPS7, A0A2R8Y623 -0.117
RPA3 (UniProt P35244) -0.021
RPP25 (UniProt Q9BUL9) 0.106
RPA2 isoform 3 (UniProt P15927) -0.027
RPS19 (UniProt P39019) 0.186
RPS20 isoform 2 (UniProt P60866) 0.151
RPL13A (UniProt P40429) 0.439
RP9 (UniProt Q8TA86) 0.167
RNF7 (UniProt Q9UBF6) -0.007
RPL3 (UniProt P39023) 0.455
RPS16 (UniProt P62249) 0.182
RRAS2 isoform 4 (UniProt P62070) 0.08
RPS2 (UniProt P15880) 0.195
RPL3L (UniProt Q92901) 0.407
RPL22 (UniProt P35268) 0.305
RPS29 (UniProt P62273) 0.276
RPL19 (UniProt P84098) 0.368
RPL14 (UniProt P50914) 0.408
RPL35 (UniProt P42766) 0.338
ROMO1 (UniProt P60602) -0.051
RPL37 (UniProt P61927) 0.375
RPL37A (UniProt P61513) 0.512
RPP40 (UniProt O75818) -0.004
RPL8 (UniProt P62917) 0.48
